These are yes or no findings as the source states them, for the method shown. Some binding calls cover weakened binding; strength is not graded here.

By UniProt entry, the sequences of proteins in these tests, tags left out. Residues count along the entry.
UniProt P51654, residues 25-559: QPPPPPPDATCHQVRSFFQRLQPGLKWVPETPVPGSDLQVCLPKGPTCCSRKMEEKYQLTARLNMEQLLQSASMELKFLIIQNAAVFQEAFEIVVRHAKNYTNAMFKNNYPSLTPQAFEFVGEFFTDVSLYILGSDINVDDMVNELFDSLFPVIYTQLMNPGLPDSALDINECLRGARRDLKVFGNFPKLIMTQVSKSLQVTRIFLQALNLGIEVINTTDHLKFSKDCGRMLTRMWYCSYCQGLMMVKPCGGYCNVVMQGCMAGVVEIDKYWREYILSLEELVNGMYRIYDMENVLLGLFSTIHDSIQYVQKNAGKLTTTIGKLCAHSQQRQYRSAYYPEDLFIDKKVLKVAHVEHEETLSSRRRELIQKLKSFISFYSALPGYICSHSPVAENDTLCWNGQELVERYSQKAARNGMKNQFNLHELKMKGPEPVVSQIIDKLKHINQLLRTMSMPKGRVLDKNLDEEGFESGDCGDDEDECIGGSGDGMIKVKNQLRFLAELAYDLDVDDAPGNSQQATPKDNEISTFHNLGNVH

In this assay the target is AlexaFluor 647-conjugated GPC3 recombinant protein (UniProt P51654). In words: magnetic isolation of CAR T cells with labelled recombinant GPC3 and anti-AlexaFluor647 microbeads.

B1: GPC3-targeting CAR polypeptide (SEQ ID NO: 105), CD28 costimulatory domain (protein)
chain: DVVMTQSPLSLPVTPGEPASISCRSSQSLVHSNRNTYLHWYLQKPGQSPQLLIYKVSNRFSGVPDRFSGSGSGTDFTLKISRVEAEDVGVYYCSQNTHVPPTFGQGTKLEIKRGGGGSGGGGSGGGGSQVQLVQSGAEVKKPGASVKVSCKASGYTFTDYEMHWVRQAPGQGLEWMGALDPKTGDTAYSQKFKGRVTLTADKSTSTAYMELSSLTSEDTAVYYCTRFYSYTYWGQGTLVTVSSIEVMYPPPYLDNEKSNGTIIHVKGKHLCPSPLFPGPSKPFWVLVVVGGVLACYSLLVTVAFIIFWVRSKRSRLLHSDYMNMTPRRPGPTRKHYQPYAPPRDFAAYRSRVKFSRSADAPAYQQGQNQLYNELNLGRREEYDVLDKRRGRDPEMGGKPRRKNPQEGLYNELQKDKMAEAYSEIGMKGERRRGKGHDGLYQGLSTATKDTYDALHMQALPPR
B1: the binding entry is “binds”.

For the origin of these results see patent US20210332334A1.
